Data: patent publication US10273231B2, “Azoline compounds substituted by a condensed ring system” (BASF SE, priority 2014, dated 2019)
Some of these results come from one statement about several compounds together.

Key:
Type in all cases: in vivo
[1] = system: Green Peach Aphid (Myzus persicae); experiment: B.2 Green peach aphid systemic test, artificial diet under membrane in microtiter plates; conditions: at 2500 ppm; adult aphids; assessed after 3 days
Description: B.2 Green Peach Aphid (Myzus persicae)
For evaluating control of green peach aphid (Myzus persicae) through systemic means the test unit consisted of 96-well-microtiter plates containing liquid artificial diet under an artificial membrane.
The compounds were formulated using a solution containing 75% v/v water and 25% v/v DMSO. Different concentrations of formulated compounds were pipetted into the aphid diet, using a custom built pipetter, at two replications.
After application, 5-8 adult aphids were placed on the artificial membrane inside the microtiter plate wells. The aphids were then allowed to suck on the treated aphid diet and incubated at about 23±1° C. and about 50±5% relative humidity for 3 days. Aphid mortality and fecundity was then visually assessed.

[2] = system: Boll Weevil (Anthonomus grandis); experiment: B.5 Boll weevil test, insect diet with eggs in microtiter plates; conditions: at 2500 ppm; egg and larval mortality after 5 days
Procedure: B.5 Boll Weevil (Anthonomus grandis)
For evaluating control of boll weevil (Anthonomus grandis) the test unit consisted of 96-well-microtiter plates containing an insect diet and 5-10 A. grandis eggs.
(§1) The compounds were formulated using a solution containing 75% v/v water and 25% v/v DMSO. Different concentrations of formulated compounds were sprayed onto the insect diet at 5 μl, using a custom built micro atomizer, at two replications.
After application, microtiter plates were incubated at about 25±1° C. and about 75±5% relative humidity for 5 days. Egg and larval mortality was then visually assessed.

[3] = system: Tobacco Budworm (Heliothis virescens); experiment: B.4 Tobacco budworm test, insect diet with eggs in microtiter plates; conditions: at 2500 ppm; egg and larval mortality after 5 days
Procedure: B.4 Tobacco Budworm (Heliothis virescens)
For evaluating control of tobacco budworm (Heliothis virescens) the test unit consisted of 96-well-microtiter plates containing an insect diet and 15-25 H. virescens eggs.
The compounds were formulated using a solution containing 75% v/v water and 25% v/v DMSO. Different concentrations of formulated compounds were sprayed onto the insect diet at 10 μl, using a custom built micro atomizer, at two replications.
After application, microtiter plates were incubated at about 28±10C and about 80±5% relative humidity for 5 days. Egg and larval mortality was then visually assessed.

[4] = system: Orchid Thrips (Dichromothrips Corbetti); experiment: B.7 Orchid thrips floral-immersion test; conditions: at 300 ppm; adult thrips; recorded 72 hours after treatment
Procedure: B.7 Orchid Thrips (Dichromothrips Corbetti) Dichromothrips corbettiadults used for bioassay were obtained from a colony maintained continuously under laboratory conditions. For testing purposes, the test compound is diluted in a 1:1 mixture of acetone:water (vol:vol), plus Kinetic HV at a rate of 0.01% v/v.
Thrips potency of each compound was evaluated by using a floral-immersion technique. All petals of individual, intact orchid flowers were dipped into treatment solution and allowed to dry in Petri dishes. Treated petals were placed into individual re-sealable plastic along with about 20 adult thrips. All test arenas were held under continuous light and a temperature of about 28° C. for duration of the assay. After 3 days, the numbers of live thrips were counted on each petal. The percent mortality was recorded 72 hours after treatment.

[5] = system: Diamond Back Moth (Plutella xylostella); experiment: B.1 Diamond back moth leaf-dip test on cabbage leaves; conditions: at 300 ppm; 3rd instar larvae; recorded 72 hours after treatment
Procedure: B.1 Diamond Back Moth (Plutella xylostella)
The active compound was dissolved at the desired concentration in a mixture of 1:1 (vol:vol) distilled water:aceteone. Surfactant (Kinetic HV) was added at a rate of 0.01% (vol/vol).The test solution was prepared at the day of use.
Leaves of cabbage were dipped in test solution and air-dried. Treated leaves were placed in petri dishes lined with moist filter paper and inoculated with ten 3rd instar larvae. Mortality was recorded 72 hours after treatment. Feeding damages were also recorded using a scale of 0-100%.

[6] = system: Mediterranean Fruitfly (Ceratitis capitata); experiment: B.6 Mediterranean fruitfly test, insect diet with eggs in microtiter plates; conditions: at 2500 ppm; egg and larval mortality after 5 days
Procedure: B.6 Mediterranean Fruitfly (Ceratitis capitata)
as §1, with “For evaluating control of Mediterranean fruitfly (Ceratitis capitata) the test unit consisted of microtiter plates containing an insect diet and 50-80 C. capitata eggs. The” for “The”
After application, microtiter plates were incubated at about 28±1° C. and about 80+5% relative humidity for 5 days. Egg and larval mortality was then visually assessed.

Measured: mortality in comparison with untreated controls

COC(=O)c1ccc(C2=NOC(c3cc(Cl)c(F)c(Cl)c3)(C(F)(F)F)C2)c2c1OCCC2 (centres unmarked) [Compound I-26]
at least 75%: [1] | [2] | [3]

O=C(O)c1ccc(C2=NOC(c3cc(Cl)c(F)c(Cl)c3)(C(F)(F)F)C2)c2c1OCCC2 (centres unmarked) [Compound I-27]
at least 75%: [2]

C=CCNC(=O)CNC(=O)c1ccc(C2=NOC(c3cc(Cl)c(F)c(Cl)c3)(C(F)(F)F)C2)c2c1COC2 (centres unmarked) [Compound I-35]
at least 75%: [4] | [5]

CCN1OC[C@H](NC(=O)c2ccc(C3=NOC(c4cc(Cl)c(F)c(Cl)c4)(C(F)(F)F)C3)c3c2COC3)C1=O (some centres unmarked) [Compound I-40]
at least 75%: [6] | [4] | [2] | [3]

O=C(CNC(=O)c1ccc(C2=NOC(c3cc(Cl)c(F)c(Cl)c3)(C(F)(F)F)C2)c2c1CS(=O)(=O)C2)NCC(F)(F)F (centres unmarked) [Compound I-44]
at least 75%: all assays above

C=CCNC(=O)CNC(=O)c1ccc(C2=NOC(c3cc(Cl)c(F)c(Cl)c3)(C(F)(F)F)C2)c2c1CS(=O)(=O)C2 (centres unmarked) [Compound I-45]
not listed: [5]
at least 75%: all other assays above

CCN1OC[C@H](NC(=O)c2ccc(C3=NOC(c4cc(Cl)c(F)c(Cl)c4)(C(F)(F)F)C3)c3c2CS(=O)(=O)C3)C1=O (some centres unmarked) [Compound I-49]
not listed: [5]
at least 75%: all other assays above

O=C(NC1CS(=O)(=O)C1)c1ccc(C2=NOC(c3cc(Cl)c(F)c(Cl)c3)(C(F)(F)F)C2)c2c1CSC2 (centres unmarked) [Compound I-51]
at least 75%: [4] | [5]

O=C(NCc1ncccn1)c1ccc(C2=NOC(c3cc(Cl)cc(Cl)c3)(C(F)(F)F)C2)c2c1OCO2 (centres unmarked) [Compound I-56]
not listed: [6]
at least 75%: all other assays above

O=C(NCc1ncccn1)c1ccc(C2=NOC(c3cc(Cl)cc(Cl)c3)(C(F)(F)F)C2)c2c1OCCC2 (centres unmarked) [Compound I-57]
not listed: [6]
at least 75%: all other assays above
